Laboratory results reported in paper PMC7862700.
Only a part is listed here, and it is no random draw. At the low end of the ranking the order means little.

Target: SPI1 (UniProt P17947)
Assay: DAPPL (digital affinity profiling via proximity ligation, sequencing)
Settings: 10 mM Tris-HCl pH 7.5, 50 mM NaCl, 1 mM DTT, 4% glycerol, room temperature, 30 min; GST-TFs on glutathione beads, 16-mer random dsDNA library, 0.1% …; high values mean tight binding; double strand, one strand shown; scale: fold enrichment (6-mer frequency, TF over GST control)

Sequence	binding signal
AGGATA	0.897
GGCTAA	0.979
TAGGTC	0.927
TTCCAA	1.11
GACTTG	0.8
AAACAG	1.13
CAAATG	1.25
TACGCG	1.12
GGAATG	0.819
ACAACA	1.18
ATGGGA	1
TTCAAC	1.28
TTAGAG	0.899
TGTCTG	1.17
GCTATG	1.13
CATTAG	0.859
AGGTGT	0.82
CGACGG	0.958
ATTCGC	1.21
CAATGT	0.991

3 entries from above, bar-delimited.
Sequence | binding signal
AGGATA | 0.897
TAGGTC | 0.927
CAAATG | 1.25

Remaining list, next part:

Sequence	binding signal
TAAGCC	1.08
TCGTTG	0.878
TCGAAC	0.949
ACGAAA	1.14
GTACAA	1.06
CTAGTG	0.95
CGCGCG	1
TTGTTG	1.15
ACTCGT	1.17
TATGAG	0.954
CCTTGC	1.27
CGTTTG	0.98
TGAGCT	0.978
CCTCCT	1.7
GGAATA	0.907
TTACTA	1.27
ACGCGA	0.964
GTGACT	0.994
TTCGGG	0.94
